In publication PMC8934646:
Positions count from the first letter of the chain named. Results are given in words; binding and its absence hold for the method and conditions named. Where a sequence is shown, tags or fusion partners need not be part of it. Blank lines part the entries; values can stand above or below the binder they belong to.

Protein sequences, listed by entry. Tags and fused reporters are not part of them.
UniProt O75643: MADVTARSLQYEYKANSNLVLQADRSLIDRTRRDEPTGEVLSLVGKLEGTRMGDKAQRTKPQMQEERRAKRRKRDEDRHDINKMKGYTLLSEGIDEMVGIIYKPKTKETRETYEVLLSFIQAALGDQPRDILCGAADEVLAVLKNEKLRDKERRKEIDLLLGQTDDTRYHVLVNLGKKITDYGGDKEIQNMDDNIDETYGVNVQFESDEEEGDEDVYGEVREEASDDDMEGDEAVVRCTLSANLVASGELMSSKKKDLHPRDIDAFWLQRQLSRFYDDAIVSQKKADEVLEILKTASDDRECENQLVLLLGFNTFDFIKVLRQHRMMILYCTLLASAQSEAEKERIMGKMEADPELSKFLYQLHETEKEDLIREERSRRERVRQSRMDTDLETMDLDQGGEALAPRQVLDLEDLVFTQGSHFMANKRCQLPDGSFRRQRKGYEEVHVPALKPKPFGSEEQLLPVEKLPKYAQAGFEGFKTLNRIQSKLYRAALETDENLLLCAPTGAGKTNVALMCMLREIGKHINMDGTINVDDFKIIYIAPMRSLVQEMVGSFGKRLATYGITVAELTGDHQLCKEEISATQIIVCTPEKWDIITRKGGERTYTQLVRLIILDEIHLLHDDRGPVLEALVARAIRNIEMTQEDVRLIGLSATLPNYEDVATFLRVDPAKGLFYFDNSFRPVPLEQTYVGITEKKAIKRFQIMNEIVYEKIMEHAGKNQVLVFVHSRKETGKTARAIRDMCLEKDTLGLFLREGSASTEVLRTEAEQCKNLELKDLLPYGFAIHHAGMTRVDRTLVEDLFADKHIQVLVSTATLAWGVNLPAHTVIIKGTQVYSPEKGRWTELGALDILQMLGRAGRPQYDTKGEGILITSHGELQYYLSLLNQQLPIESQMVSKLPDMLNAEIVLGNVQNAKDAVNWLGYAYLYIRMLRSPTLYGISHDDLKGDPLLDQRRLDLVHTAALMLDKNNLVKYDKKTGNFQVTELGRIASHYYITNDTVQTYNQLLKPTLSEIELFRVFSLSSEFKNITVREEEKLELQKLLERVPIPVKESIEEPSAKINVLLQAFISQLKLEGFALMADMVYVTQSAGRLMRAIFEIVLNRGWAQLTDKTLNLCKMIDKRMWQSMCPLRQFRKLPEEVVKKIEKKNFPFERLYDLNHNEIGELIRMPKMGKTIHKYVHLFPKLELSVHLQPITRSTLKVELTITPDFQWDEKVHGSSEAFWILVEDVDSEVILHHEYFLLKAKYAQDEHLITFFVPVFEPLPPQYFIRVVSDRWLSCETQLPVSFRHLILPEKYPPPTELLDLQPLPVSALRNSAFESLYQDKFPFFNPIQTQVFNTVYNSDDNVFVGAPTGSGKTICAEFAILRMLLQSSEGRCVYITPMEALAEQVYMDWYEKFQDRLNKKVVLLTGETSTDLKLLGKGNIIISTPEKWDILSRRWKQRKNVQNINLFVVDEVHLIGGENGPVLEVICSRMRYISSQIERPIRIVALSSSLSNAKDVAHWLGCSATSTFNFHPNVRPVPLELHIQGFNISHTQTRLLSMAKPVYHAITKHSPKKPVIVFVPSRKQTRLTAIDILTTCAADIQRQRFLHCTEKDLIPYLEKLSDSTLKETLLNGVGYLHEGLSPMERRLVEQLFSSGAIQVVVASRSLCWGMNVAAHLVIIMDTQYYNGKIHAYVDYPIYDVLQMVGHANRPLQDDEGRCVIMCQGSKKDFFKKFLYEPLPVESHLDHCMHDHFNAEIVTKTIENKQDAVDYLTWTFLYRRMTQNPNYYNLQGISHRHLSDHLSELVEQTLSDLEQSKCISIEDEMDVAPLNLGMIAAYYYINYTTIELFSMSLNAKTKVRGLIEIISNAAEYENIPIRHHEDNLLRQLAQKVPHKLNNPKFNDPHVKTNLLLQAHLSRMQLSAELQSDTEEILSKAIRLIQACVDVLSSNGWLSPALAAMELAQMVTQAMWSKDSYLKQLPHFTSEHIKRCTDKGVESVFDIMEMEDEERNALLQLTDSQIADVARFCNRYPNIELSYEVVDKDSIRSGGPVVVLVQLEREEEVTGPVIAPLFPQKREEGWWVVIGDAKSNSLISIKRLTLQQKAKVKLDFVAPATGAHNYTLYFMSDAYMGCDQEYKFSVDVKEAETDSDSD

Biological target: full-length SNRNP200 (SNRNP200^FL) (human) (UniProt O75643)
Assay: SEC; analytical SEC, Superdex 200 increase 3.2/300, 20 mM Tris-HCl pH 8.0, 200 mM NaCl, 1 mM DTT; 75 μg SNRNP200 variant with 1.5-fold molar excess of a GST-TSSC4 variant, or 30 μg GST-TSSC4 variant with equimolar PRPF8^Jab1ΔC, in 50 μl, 10 min on ice; fractions by SDS-PAGE; both purified

binding: no binding
B1: GST-TSSC4 variant 2 (GST-TSSC4^V2) (protein, UniProt Q9Y5U2 1-329)
chain: MAEAGTGEPSPSVEGEHGTEYDTLPSDTVSLSDSDSDLSLPGGAEVEALSPMGLPGEEDSGPDEPPSPPSGLLPATVQPFHLRGMSSTFSQRSRDIFDCLEGAARRAPSSVAHTSMSDNGGFKRPLAPSGRSPVEGLGRAHRSPASPRVPPVPDYVAHPERWTKYSLEDVTEVSEQSNQATALAFLGSQSLAAPTDCVSSAAQDPSSCGEGRVIFTKPVRGVEARHERKRVLGKVGEPGRGGLGNPATDRGEGPVELAHLAGPGSPEAEEWGSHHGGLQEVEALSGSVHSGSVPGLPPVETVGFHGSRKRSRDHAANKSSSPEDPGAEV

binding: no binding
B2: GST-TSSC4 variant 3 (GST-TSSC4^V3) (protein, UniProt Q9Y5U2 1-329)
chain: B1 chain with W162A, Y165A
